Measurements taken from PMC2954905, “Controlling Cellular P-TEFb Activity by the HIV-1 Transcriptional Transactivator Tat”.
Results are given in words; binding and its absence hold for the method and conditions named. Binding seen in cells or lysates may run through a third protein. Some binding calls cover weakened binding; strength is not graded here.

The chains behind the UniProt entries cited, without tags or fusion partners.
UniProt O60563: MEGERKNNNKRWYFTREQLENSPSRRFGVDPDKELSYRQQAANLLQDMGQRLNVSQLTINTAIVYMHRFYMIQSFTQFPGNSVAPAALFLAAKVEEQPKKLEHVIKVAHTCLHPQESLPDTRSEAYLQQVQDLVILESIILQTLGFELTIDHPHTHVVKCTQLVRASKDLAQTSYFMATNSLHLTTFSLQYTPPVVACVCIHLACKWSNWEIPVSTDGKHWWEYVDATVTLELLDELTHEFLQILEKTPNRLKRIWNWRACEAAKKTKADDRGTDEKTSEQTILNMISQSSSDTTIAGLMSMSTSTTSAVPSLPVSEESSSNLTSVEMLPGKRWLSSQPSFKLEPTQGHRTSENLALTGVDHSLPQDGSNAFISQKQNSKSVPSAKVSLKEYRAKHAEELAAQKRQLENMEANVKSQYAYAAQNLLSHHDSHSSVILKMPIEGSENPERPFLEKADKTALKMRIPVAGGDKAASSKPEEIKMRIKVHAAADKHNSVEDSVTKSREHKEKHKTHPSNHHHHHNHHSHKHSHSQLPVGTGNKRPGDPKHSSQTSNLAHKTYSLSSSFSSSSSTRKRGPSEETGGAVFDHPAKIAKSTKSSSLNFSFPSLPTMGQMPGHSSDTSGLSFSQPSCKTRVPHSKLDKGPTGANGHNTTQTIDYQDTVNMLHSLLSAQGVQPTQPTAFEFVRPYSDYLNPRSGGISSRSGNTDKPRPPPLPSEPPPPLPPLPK
UniProt O94992: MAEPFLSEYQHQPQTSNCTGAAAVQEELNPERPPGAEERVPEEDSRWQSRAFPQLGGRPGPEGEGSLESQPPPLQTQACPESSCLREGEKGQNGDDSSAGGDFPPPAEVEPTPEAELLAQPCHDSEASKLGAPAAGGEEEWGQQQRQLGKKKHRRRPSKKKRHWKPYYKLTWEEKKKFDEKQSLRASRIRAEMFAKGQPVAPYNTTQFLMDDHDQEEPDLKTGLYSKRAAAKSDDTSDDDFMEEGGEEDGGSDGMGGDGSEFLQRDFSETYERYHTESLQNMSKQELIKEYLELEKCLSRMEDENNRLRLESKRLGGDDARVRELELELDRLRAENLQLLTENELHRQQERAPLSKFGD

Target: HA-tagged cyclin T1 (HA-CycT1) (UniProt O60563)
Test: co-IP; HA-CycT1 immunoprecipitated from extracts of HeLa G3H cells transiently expressing wild-type or mutant (C22G, K41A) Tat-FL; co-precipitation of endogenous HEXIM1 and Tat-FL proteins monitored

## HEXIM1, endogenous (from UniProt O94992 1-359)
  binding: binds
